Values from PubChem BioAssay AID1671195 (Yale University, 2021)
Here is one part, drawn at random, of about 22,000 reagents tested. Over the whole deposit, about 1,510 (6.9%) were called active. 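Active includes knockdowns raising or lowering LDL uptake; positive z-scores mean more uptake, negative mean less.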 No sequences are given here.

- Purpose: 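Genes whose knockdown alters LDL uptake in liver cancer cells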 (primary screen)
- System: human Huh7 hepatoma cells
- Reagent: siRNA pool against human genes, 18 nM
- Duration: about 2 to 2.5 days of knockdown, then 8 h LDL uptake
- Treatment: DiI-labelled LDL at 30 µg/ml for 8 h, in lipoprotein-deficient serum medium
- Detection: 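Fluorescent LDL signal imaged in cells, scaled to the plate median, robust z-score for each replicate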
- Scale: robust z-score: higher = more LDL uptake after knockdown
- Call rule: 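a gene counts as active if at least two replicate z-scores exceed ±2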

gene | robust z-score, replicate 1 | robust z-score, replicate 2 | robust z-score, replicate 3 | Outcome
LOC401410 (retired record) | -0.559 | -0.548 | -0.699 | inactive
LRRC46 | -0.172 | -1.17 | -1.13 | inactive
FATE1 | 0.0754 | 0.103 | 0.573 | inactive
DTX3 | -0.0179 | 0.267 | 0.0543 | inactive
FAM169BP | 1.26 | 0.979 | 0.749 | inactive
URB2 | 1.94 | 1.25 | 0.621 | inactive
LELP1 | -0.151 | 0.0769 | 0.052 | inactive
ADGRE2 | -1.97 | -2.18 | -2.31 | active
CCDC30 | -0.189 | 0.43 | 0.0505 | inactive
GTF3A | 0.606 | 0.427 | 0.602 | inactive

Records listed so far marked active:
gene | robust z-score, replicate 1 | robust z-score, replicate 2 | robust z-score, replicate 3 | Outcome
ADGRE2 | -1.97 | -2.18 | -2.31 | active

The list goes on:
gene | robust z-score, replicate 1 | robust z-score, replicate 2 | robust z-score, replicate 3 | Outcome
DLX5 | -1.75 | -1.43 | -1.93 | inactive
MEOX1 | 1.89 | 2.55 | 1.29 | inactive
FOXF1 | -1.09 | -0.684 | -1.05 | inactive
UBR7 | 0.141 | 0.325 | 0.0294 | inactive
APTX | -0.466 | -0.273 | -0.633 | inactive
MISP3 | -0.824 | 0.0886 | -0.459 | inactive
PRDM14 | -0.36 | -0.488 | -0.551 | inactive
LOC440190 (retired record) | 1.18 | 1.43 | 0.899 | inactive
EMX2 | -0.326 | -0.526 | -0.405 | inactive
H2BC17 | 2.09 | 2.42 | 2.97 | active
IL1RAPL2 | -0.437 | -0.0215 | -0.35 | inactive
DDX47 | 2.27 | -0.522 | 0.776 | inactive
RBFOX1 | -1.01 | -0.542 | -0.225 | inactive
AK7 | -0.846 | -1.47 | -1.22 | inactive
AHCYL2 | 0.329 | 0.0305 | 0.49 | inactive
RAD21 | -1.14 | -2.03 | -0.933 | inactive
ENPP5 | -0.311 | -0.265 | -0.376 | inactive
LENG1 | -0.565 | -0.327 | -0.38 | inactive
